Source: the supplement of paper PMC10849652
Some of the results follow.

Chains of the proteins cited; added tags and fusions are not shown. Lines headed by an entry give the natural chain unless they say otherwise; changes in a name come on top.
UniProt P83876: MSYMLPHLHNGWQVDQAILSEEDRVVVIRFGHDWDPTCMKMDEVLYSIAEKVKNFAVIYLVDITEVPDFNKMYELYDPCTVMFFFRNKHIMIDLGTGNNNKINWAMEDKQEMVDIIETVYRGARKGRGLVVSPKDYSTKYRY
UniProt Q8NBS9: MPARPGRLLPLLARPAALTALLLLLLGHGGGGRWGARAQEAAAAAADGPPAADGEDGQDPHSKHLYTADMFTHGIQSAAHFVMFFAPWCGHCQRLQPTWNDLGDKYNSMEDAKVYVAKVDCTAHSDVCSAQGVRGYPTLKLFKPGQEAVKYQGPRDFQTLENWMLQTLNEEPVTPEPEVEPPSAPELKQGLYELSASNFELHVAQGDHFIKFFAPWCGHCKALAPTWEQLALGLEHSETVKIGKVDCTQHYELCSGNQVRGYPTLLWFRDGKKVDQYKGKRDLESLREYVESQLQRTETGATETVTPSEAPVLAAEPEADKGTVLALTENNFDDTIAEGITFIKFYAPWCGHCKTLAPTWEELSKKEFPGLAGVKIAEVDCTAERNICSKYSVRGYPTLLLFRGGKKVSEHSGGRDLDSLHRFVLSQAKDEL
UniProt P61077: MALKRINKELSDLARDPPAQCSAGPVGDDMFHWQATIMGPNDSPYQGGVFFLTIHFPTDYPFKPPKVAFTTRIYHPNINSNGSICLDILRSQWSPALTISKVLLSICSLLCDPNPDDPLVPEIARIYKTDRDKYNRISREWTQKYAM
UniProt Q712K3: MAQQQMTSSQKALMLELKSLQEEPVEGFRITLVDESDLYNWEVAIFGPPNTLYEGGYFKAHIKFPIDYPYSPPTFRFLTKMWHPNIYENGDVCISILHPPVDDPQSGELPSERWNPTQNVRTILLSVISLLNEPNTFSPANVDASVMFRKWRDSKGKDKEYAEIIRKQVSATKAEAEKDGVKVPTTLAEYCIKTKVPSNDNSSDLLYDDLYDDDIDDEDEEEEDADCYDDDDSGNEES
UniProt Q8TBC4: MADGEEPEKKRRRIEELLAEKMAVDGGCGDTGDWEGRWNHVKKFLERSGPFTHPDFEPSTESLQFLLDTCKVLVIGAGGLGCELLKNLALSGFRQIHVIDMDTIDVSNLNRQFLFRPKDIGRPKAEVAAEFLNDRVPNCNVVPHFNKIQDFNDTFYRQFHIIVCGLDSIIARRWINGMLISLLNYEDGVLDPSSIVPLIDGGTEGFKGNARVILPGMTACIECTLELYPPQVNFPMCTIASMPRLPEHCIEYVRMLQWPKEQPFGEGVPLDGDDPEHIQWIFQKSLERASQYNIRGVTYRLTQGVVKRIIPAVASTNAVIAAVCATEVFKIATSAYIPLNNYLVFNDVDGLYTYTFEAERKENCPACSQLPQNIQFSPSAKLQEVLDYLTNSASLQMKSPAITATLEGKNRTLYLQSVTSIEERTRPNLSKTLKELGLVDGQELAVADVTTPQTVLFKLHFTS
UniProt Q06418: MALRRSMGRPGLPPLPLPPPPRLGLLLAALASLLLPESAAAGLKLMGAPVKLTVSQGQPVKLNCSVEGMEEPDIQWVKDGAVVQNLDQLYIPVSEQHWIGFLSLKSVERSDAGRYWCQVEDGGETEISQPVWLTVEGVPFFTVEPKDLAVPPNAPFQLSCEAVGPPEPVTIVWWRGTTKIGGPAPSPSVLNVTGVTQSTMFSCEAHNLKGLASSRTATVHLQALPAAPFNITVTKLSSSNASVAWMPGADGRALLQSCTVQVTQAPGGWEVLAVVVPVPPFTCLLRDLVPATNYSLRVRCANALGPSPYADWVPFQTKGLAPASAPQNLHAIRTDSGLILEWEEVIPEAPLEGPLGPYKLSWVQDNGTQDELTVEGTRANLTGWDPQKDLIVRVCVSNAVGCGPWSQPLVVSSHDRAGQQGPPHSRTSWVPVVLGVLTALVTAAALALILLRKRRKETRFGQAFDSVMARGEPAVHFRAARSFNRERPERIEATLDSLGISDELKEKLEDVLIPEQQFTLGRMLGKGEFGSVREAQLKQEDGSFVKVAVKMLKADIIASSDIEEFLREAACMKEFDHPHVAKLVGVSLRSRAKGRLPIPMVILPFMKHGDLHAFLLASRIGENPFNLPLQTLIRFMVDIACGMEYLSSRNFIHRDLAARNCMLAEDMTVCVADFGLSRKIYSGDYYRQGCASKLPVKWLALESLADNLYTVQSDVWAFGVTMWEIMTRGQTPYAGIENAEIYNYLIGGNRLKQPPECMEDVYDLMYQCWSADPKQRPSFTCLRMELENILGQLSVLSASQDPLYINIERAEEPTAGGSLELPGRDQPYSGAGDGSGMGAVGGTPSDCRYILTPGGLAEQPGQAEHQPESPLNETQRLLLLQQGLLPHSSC
UniProt P04350, whole entry, looked up: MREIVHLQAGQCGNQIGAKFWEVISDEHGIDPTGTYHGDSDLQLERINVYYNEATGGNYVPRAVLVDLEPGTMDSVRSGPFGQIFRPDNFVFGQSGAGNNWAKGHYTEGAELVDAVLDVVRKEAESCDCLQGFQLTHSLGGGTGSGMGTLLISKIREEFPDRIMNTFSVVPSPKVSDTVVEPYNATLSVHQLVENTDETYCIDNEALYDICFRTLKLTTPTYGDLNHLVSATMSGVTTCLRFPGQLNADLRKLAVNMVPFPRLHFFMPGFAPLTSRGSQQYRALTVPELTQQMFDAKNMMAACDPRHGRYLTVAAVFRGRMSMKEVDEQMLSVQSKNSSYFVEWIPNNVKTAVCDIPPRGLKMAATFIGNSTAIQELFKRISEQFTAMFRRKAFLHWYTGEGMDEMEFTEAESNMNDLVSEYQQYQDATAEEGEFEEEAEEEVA
UniProt O00124: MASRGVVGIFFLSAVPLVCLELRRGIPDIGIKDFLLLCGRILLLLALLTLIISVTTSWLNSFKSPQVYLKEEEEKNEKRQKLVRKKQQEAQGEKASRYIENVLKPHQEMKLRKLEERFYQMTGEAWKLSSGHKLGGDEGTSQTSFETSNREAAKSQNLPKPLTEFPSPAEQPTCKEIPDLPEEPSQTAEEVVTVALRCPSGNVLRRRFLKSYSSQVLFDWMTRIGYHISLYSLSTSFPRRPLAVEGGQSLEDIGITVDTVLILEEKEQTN
UniProt O15042: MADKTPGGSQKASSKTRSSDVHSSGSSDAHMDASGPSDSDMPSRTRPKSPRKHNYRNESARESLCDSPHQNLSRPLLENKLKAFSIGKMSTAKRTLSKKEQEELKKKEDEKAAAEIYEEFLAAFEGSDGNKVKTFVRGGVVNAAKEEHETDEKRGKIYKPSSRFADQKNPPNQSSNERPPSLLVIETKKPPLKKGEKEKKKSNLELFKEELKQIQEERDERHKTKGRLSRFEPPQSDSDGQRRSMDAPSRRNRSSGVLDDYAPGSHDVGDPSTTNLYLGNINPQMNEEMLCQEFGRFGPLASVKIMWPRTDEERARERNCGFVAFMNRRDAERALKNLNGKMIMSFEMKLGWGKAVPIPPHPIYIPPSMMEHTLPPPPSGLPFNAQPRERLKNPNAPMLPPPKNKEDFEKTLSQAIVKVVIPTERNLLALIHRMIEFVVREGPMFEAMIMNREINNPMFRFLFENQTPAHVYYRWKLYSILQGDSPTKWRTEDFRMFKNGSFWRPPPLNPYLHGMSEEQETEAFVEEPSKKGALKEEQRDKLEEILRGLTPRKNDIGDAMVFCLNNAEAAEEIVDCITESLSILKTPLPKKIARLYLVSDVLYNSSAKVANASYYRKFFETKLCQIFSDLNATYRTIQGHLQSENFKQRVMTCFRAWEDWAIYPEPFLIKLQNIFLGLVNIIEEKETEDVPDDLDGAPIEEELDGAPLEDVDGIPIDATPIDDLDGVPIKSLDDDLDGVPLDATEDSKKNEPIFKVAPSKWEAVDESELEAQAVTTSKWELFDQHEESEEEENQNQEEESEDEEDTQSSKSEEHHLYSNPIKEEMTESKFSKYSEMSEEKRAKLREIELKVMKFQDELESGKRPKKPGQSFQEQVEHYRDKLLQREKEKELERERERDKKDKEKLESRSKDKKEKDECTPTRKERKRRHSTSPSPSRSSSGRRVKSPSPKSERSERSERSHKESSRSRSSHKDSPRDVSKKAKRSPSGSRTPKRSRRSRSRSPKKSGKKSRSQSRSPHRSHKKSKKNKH
UniProt O75386: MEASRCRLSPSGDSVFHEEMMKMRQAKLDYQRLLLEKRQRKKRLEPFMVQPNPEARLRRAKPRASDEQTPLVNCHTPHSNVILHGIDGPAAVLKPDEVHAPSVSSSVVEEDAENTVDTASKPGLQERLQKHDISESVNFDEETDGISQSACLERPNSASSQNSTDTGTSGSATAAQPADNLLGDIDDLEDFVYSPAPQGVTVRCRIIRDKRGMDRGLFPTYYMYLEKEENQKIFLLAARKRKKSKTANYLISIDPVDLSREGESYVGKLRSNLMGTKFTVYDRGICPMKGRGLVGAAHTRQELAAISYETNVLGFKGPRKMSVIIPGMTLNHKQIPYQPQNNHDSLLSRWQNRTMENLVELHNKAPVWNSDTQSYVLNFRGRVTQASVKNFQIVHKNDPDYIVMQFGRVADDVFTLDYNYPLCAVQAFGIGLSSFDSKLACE
UniProt A2RUC4: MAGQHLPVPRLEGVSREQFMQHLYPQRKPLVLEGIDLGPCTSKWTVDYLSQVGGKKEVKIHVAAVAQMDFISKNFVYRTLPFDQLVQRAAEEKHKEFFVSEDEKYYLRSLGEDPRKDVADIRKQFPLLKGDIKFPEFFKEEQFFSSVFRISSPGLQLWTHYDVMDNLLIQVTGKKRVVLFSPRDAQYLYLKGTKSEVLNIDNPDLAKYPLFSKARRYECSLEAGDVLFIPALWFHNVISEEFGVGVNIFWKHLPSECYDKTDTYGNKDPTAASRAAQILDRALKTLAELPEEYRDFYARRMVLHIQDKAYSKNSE
UniProt Q9BZL1: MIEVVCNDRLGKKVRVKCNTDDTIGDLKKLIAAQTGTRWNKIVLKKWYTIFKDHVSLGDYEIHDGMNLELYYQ
UniProt Q86VQ3: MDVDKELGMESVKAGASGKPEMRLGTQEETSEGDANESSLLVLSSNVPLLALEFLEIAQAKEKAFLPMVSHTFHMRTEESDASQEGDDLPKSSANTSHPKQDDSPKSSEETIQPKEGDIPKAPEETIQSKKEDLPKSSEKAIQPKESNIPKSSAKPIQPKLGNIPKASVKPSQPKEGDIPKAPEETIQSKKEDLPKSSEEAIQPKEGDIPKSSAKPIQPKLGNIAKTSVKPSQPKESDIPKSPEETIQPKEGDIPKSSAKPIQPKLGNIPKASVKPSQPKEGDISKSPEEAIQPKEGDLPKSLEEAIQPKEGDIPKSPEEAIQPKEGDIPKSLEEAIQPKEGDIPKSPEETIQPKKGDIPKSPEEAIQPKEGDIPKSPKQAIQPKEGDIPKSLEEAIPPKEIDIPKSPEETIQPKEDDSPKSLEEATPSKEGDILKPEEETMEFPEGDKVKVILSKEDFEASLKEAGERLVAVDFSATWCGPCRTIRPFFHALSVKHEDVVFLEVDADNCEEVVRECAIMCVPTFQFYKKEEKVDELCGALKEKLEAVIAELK
UniProt O75896: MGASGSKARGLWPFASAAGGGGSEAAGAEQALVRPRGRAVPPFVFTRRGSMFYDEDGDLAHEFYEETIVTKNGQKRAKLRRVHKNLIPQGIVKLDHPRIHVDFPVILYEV
UniProt P41226: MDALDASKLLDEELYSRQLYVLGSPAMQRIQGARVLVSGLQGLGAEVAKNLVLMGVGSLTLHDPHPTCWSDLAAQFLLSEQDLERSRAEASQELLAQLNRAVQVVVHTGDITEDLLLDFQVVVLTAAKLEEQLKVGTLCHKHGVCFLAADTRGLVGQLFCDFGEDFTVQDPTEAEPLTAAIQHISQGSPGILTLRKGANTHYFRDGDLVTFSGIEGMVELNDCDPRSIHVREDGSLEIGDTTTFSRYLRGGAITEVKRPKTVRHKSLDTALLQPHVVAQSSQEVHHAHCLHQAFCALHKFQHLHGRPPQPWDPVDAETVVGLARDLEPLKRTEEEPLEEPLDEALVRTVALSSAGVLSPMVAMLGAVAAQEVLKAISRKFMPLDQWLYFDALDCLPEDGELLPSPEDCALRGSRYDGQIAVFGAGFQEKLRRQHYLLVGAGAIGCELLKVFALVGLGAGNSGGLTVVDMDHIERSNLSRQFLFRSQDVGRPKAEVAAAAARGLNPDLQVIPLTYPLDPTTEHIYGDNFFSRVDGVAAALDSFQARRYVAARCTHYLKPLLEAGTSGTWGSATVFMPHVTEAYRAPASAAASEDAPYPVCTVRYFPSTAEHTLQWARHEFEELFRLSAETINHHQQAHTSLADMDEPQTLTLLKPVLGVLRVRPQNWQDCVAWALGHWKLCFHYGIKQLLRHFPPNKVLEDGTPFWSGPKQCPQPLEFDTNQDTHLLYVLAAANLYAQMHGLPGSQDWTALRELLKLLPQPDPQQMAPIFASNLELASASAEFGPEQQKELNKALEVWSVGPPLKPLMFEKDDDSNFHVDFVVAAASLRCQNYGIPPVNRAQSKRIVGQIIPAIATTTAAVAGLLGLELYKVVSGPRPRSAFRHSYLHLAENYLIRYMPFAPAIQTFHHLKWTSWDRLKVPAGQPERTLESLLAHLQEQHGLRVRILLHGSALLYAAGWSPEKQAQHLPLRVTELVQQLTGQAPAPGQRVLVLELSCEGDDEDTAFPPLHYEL

Tests used:
Assay in all cases: log2 fold change, soluble protein after heating vs DMSO (PISA); higher = thermal stabilisation; K562 lysate, 10 uM; active = over 0.2 and 3.5 SD of the protein, either way, in both replicates (recomputed)
vemurafenib = compound: CCCS(=O)(=O)Nc1ccc(F)c(C(=O)c2c[nH]c3ncc(-c4ccc(Cl)cc4)cc23)c1F [vemurafenib]
How it was run: (§1)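 Following dounce homogenisation of K562 pellets in PBS pH 7.4 with 1 mM MgCl2, crude extract at 1 mg/mL protein was incubated for 30 min with 10 μM compound. Aliquots were then heated for 3 min over 48°C-58°C and pooled, NP-40 was added to 0.5% at 4°C, and soluble protein was recovered as the supernatant at 21,000xg for 90 min. Channel-sum-equalised TMTpro 16plex LC-MS/MS quantified this protein. Each value, from duplicates, is a log-two fold change in thermal stability relative to solvent controls.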

[1] = compound: CCCS(=O)(=O)Nc1ccc(F)c(C(=O)c2c[nH]c3ncc(Cl)cc23)c1F
How it was run: as §1

barasertib = compound: CCN(CCCOc1ccc2c(Nc3cc(CC(=O)Nc4cccc(F)c4)[nH]n3)ncnc2c1)CCOP(=O)(O)O [barasertib]
How it was run: as §1

[2] = compound: CC[C@@H]1C(=O)N(C)c2cnc(Nc3ccc(C(=O)NC4CCN(C)CC4)cc3OC)nc2N1C1CCCC1
How it was run: as §1

volasertib = compound: CC[C@@H]1C(=O)N(C)c2cnc(Nc3ccc(C(=O)N[C@H]4CC[C@H](N5CCN(CC6CC6)CC5)CC4)cc3OC)nc2N1C(C)C [volasertib]
How it was run: as §1

[3] = compound: CCn1c(C(=O)N(C2CC2)C2CC2)cc2c3c(ncn3C)c(Nc3cc(C)n(C)n3)nc21
How it was run: as §1

[4] = compound: CCn1cc(-c2ccnc3[nH]c(-c4cccc(CN(C)C)c4)cc23)c(-c2ccc(NC(=O)N(C)C)cc2)n1
How it was run: as §1

[5] = compound: CN1CCC(CNc2ccc3ncc(-c4cccc(OC(F)(F)F)c4)n3n2)CC1
How it was run: as §1

saracatinib = compound: CN1CCN(CCOc2cc(OC3CCOCC3)c3c(Nc4c(Cl)ccc5c4OCO5)ncnc3c2)CC1 [saracatinib]
How it was run: as §1

sotrastaurin = compound: CN1CCN(c2nc(C3=C(c4c[nH]c5ccccc45)C(=O)NC3=O)c3ccccc3n2)CC1 [sotrastaurin]
How it was run: as §1

Measured: log2 fold change

TXNL4A (UniProt P83876)
inactive: vemurafenib -0.009 | [1] 0.008 | barasertib -0.026 | [2] 0.028 | volasertib -0.009 | [3] -0.013 | [4] -0.151 | [5] 0.033 | saracatinib -0.005 | sotrastaurin 0

TXNDC5 (UniProt Q8NBS9)
inactive: vemurafenib -0.001 | [1] -0.026 | barasertib -0.037 | [2] 0.02 | volasertib 0.02 | [3] -0.018 | [4] -0.016 | [5] 0.022 | saracatinib -0.014 | sotrastaurin -0.014

TTN isoform 12 (UniProt Q8WZ42)
inactive: vemurafenib 0.117 | [1] 0.057 | barasertib 0.008 | [2] 0.093 | volasertib 0.051 | [3] -0.059 | [4] -0.304 | [5] 0.15 | saracatinib 0.04 | sotrastaurin -0.04

TXLNA (UniProt P40222)
inactive: vemurafenib -0.008 | [1] -0.01 | barasertib -0.011 | [2] 0.026 | volasertib 0.011 | [3] -0.002 | [4] 0.027 | [5] -0.013 | saracatinib -0.015 | sotrastaurin -0.02

TXNRD1 (UniProt Q16881)
inactive: vemurafenib 0.033 | [1] 0.003 | barasertib -0.007 | [2] -0.052 | volasertib 0.011 | [3] -0.002 | [4] -0.09 | [5] 0.048 | saracatinib 0.014 | sotrastaurin 0.014

TUBGCP3 (UniProt Q96CW5)
inactive: vemurafenib -0.013 | [1] 0.026 | barasertib -0.078 | [2] 0.001 | volasertib -0.039 | [3] 0.028 | [4] -0.016 | [5] 0.015 | saracatinib 0.002 | sotrastaurin 0.01

UBE2D3 isoform 3 (UniProt P61077)
inactive: vemurafenib 0.035 | [1] 0.011 | barasertib -0.047 | [2] 0.004 | volasertib 0.015 | [3] -0.094 | [4] 0.039 | [5] 0.051 | saracatinib 0.039 | sotrastaurin -0.013

UBE2E1 (UniProt P51965)
inactive: vemurafenib -0.013 | [1] -0.054 | barasertib -0.039 | [2] -0.064 | volasertib -0.068 | [3] 0.008 | [4] 0.074 | [5] -0.055 | saracatinib 0.024 | sotrastaurin -0.015

TXN (UniProt P10599)
inactive: vemurafenib -0.032 | [1] -0.015 | barasertib -0.002 | [2] 0.082 | volasertib 0.007 | [3] -0.008 | [4] 0.113 | [5] -0.007 | saracatinib -0.051 | sotrastaurin 0.005

UBE2R2 (UniProt Q712K3)
inactive: vemurafenib 0.035 | [1] -0.035 | barasertib 0.02 | [2] 0.036 | volasertib 0.002 | [3] 0.024 | [4] -0.013 | [5] -0.008 | saracatinib 0.022 | sotrastaurin 0.003

UBA3 (UniProt Q8TBC4)
inactive: vemurafenib 0.007 | [1] 0.025 | barasertib -0.008 | [2] -0.035 | volasertib -0.013 | [3] 0.024 | [4] -0.011 | [5] 0.047 | saracatinib -0.017 | sotrastaurin 0.004

TXNDC15 (UniProt Q96J42)
inactive: vemurafenib -0.042 | [1] 0.046 | barasertib 0.026 | [2] 0.093 | volasertib -0.008 | [3] 0.013 | [4] -0.029 | [5] 0.002 | saracatinib 0.044 | sotrastaurin -0.03

TYRO3 (UniProt Q06418)
inactive: vemurafenib 0.085 | barasertib 0.007 | [2] 0.07 | [3] -0.057 | [4] -0.029 | [5] -0.003 | sotrastaurin 0

TUBB4A (UniProt P04350)
inactive: [1] 0.036 | barasertib -0.006 | [2] 0.045 | volasertib 0.104 | [3] 0.02 | [4] -0.09 | [5] 0 | saracatinib -0.033 | sotrastaurin -0.007

TXNIP (UniProt Q9H3M7)
inactive: vemurafenib 0.008 | barasertib -0.005 | [2] -0.006 | [3] 0.016 | [4] 0.209 | [5] -0.11 | saracatinib -0.07 | sotrastaurin 0.016

UBA2 (UniProt U3KQ93)
inactive: [2] 0.229 | sotrastaurin -0.045

UBXN8 (UniProt O00124)
inactive: [2] 0.012 | [3] 0.005 | [4] 0 | [5] 0.171 | saracatinib 0.109 | sotrastaurin 0.013

TVP23C (UniProt Q96ET8)
inactive: [4] -0.054 | [5] 0.215 | sotrastaurin 0.034

TXNRD2 isoform 3 (UniProt Q9NNW7)
inactive: [3] -0.081

U2SURP isoform 2 (UniProt O15042)
inactive: vemurafenib -0.085 | [2] 0.155 | saracatinib 0.018

UCHL1 (UniProt P09936)
inactive: [2] -0.654

TUBA4A (UniProt C9JQ00)
inactive: barasertib 0.267 | [4] 0 | [5] -0.045

UBA52 (UniProt P62987)
inactive: [1] -0.021 | barasertib 0 | [2] 0.055 | volasertib 0.016 | [4] 0.02 | [5] -0.032 | sotrastaurin -0.043

UBXN7 (UniProt H7BYF4)
inactive: [1] -0.047 | volasertib 0.004

TUFT1 (UniProt Q9NNX1)
inactive: barasertib -0.102 | [2] 0.284 | [3] 0.023 | [4] -0.018 | [5] 0.117

UBA2 (UniProt K7ESK7)
inactive: [1] -0.041 | volasertib 0.046

TUBB2B (UniProt Q9BVA1)
inactive: [1] -0.1 | barasertib -0.089 | [2] 0.1 | volasertib -0.018 | [4] 0.019 | [5] -0.014 | saracatinib 0.051

TULP3 isoform 2 (UniProt O75386)
inactive: vemurafenib -0.064 | [3] 0.122 | saracatinib -0.017

UBE2O (UniProt K7ES11)
inactive: [1] 0.171 | volasertib -0.012 | [4] 0.676 | [5] -0.44

UBAP2, A0A0D9SFI5
inactive: sotrastaurin 0.007

UBN2 (UniProt Q6ZU65)
inactive: vemurafenib 0.035 | [2] 0.004 | [3] 0.116 | saracatinib -0.071 | sotrastaurin 0.074

TYK2 (UniProt P29597)
inactive: [2] 0.111 | sotrastaurin 0.039

TXNRD3 (UniProt Q86VQ6)
inactive: [1] 0.163 | barasertib 0.279 | [2] 0.087 | volasertib -0.217 | [4] -0.013 | [5] -0.045

TYW5 (UniProt A2RUC4)
inactive: [1] -0.053 | barasertib -0.157 | [2] -0.056 | volasertib -0.092 | [4] 0.042 | [5] -0.017 | sotrastaurin -0.005

UBAP2L isoform 1 (UniProt Q14157)
inactive: barasertib 0.001 | [3] 0.207 | sotrastaurin -0.105

UBL5 (UniProt Q9BZL1)
inactive: vemurafenib 0.014 | barasertib 0.036 | [2] -0.015 | [3] -0.028 | [4] -0.126 | [5] 0.097 | saracatinib -0.007 | sotrastaurin -0.186

TWNK (UniProt Q96RR1)
inactive: vemurafenib 0.014 | barasertib 0 | [2] 0.252 | [3] -0.481 | [4] 0.372 | [5] -0.484 | saracatinib 0.003 | sotrastaurin -0.043

UBOX5 (UniProt O94941)
inactive: [3] -0.063 | [4] 0.06 | [5] 0.074 | saracatinib 0.085

TXNDC2 (UniProt Q86VQ3)
inactive: [1] 0.035 | barasertib -0.014 | volasertib -0.067 | [3] 0.032 | [4] -0.035 | [5] 0.085 | sotrastaurin 0.027

TUSC2 (UniProt O75896)
inactive: [1] 0.1 | barasertib -0.163 | [2] -0.275 | volasertib 0.007 | [3] -0.046 | [4] -0.036 | [5] 0.061 | saracatinib 0.002

UBA7 (UniProt P41226)
inactive: [4] 0.107 | [5] -0.018 | sotrastaurin 0

U2AF1L5 (UniProt P0DN76)
inactive: [1] -0.013 | [2] 0.027 | volasertib -0.036 | [3] 0.015 | [5] 0.389 | saracatinib -0.007
active: [4] -1.21

TXNDC9 isoform 2 (UniProt O14530)
inactive: saracatinib 0.002

UBE2M (UniProt M0QX69)
inactive: [4] -0.346 | [5] 0.409

TUBA8 (UniProt Q9NY65)
inactive: barasertib -0.051 | [2] -0.051 | [4] -0.359 | [5] 0.132 | saracatinib 0.149

Random excerpt: 2 entries already listed.
UBE2M (UniProt M0QX69)
inactive: [4] -0.346 | [5] 0.409

U2AF1L5 (UniProt P0DN76)
inactive: [1] -0.013 | [2] 0.027 | volasertib -0.036 | [3] 0.015 | [5] 0.389 | saracatinib -0.007
active: [4] -1.21

Further results

TXNDC11 (UniProt Q6PKC3)
inactive: [1] 0.023 | barasertib 0.042 | [2] -0.044 | volasertib -0.061 | [3] -0.059 | [4] -0.102 | [5] -0.02 | saracatinib 0.054 | sotrastaurin -0.011

UBE2L5, A0A1B0GUS4
inactive: [1] 0.116 | volasertib -0.114 | [3] -0.119 | [4] 0.031 | [5] 0.166
